Source: patent publication US20110256134A1
These are yes or no findings as the source states them, for the method shown. Some entries that bind do so weakly or less than the wild type.

Sequences of proteins named here, by UniProt entry; tags and fusion partners are left off. Residues count along the entry.
UniProt P04114, residues 28-4563: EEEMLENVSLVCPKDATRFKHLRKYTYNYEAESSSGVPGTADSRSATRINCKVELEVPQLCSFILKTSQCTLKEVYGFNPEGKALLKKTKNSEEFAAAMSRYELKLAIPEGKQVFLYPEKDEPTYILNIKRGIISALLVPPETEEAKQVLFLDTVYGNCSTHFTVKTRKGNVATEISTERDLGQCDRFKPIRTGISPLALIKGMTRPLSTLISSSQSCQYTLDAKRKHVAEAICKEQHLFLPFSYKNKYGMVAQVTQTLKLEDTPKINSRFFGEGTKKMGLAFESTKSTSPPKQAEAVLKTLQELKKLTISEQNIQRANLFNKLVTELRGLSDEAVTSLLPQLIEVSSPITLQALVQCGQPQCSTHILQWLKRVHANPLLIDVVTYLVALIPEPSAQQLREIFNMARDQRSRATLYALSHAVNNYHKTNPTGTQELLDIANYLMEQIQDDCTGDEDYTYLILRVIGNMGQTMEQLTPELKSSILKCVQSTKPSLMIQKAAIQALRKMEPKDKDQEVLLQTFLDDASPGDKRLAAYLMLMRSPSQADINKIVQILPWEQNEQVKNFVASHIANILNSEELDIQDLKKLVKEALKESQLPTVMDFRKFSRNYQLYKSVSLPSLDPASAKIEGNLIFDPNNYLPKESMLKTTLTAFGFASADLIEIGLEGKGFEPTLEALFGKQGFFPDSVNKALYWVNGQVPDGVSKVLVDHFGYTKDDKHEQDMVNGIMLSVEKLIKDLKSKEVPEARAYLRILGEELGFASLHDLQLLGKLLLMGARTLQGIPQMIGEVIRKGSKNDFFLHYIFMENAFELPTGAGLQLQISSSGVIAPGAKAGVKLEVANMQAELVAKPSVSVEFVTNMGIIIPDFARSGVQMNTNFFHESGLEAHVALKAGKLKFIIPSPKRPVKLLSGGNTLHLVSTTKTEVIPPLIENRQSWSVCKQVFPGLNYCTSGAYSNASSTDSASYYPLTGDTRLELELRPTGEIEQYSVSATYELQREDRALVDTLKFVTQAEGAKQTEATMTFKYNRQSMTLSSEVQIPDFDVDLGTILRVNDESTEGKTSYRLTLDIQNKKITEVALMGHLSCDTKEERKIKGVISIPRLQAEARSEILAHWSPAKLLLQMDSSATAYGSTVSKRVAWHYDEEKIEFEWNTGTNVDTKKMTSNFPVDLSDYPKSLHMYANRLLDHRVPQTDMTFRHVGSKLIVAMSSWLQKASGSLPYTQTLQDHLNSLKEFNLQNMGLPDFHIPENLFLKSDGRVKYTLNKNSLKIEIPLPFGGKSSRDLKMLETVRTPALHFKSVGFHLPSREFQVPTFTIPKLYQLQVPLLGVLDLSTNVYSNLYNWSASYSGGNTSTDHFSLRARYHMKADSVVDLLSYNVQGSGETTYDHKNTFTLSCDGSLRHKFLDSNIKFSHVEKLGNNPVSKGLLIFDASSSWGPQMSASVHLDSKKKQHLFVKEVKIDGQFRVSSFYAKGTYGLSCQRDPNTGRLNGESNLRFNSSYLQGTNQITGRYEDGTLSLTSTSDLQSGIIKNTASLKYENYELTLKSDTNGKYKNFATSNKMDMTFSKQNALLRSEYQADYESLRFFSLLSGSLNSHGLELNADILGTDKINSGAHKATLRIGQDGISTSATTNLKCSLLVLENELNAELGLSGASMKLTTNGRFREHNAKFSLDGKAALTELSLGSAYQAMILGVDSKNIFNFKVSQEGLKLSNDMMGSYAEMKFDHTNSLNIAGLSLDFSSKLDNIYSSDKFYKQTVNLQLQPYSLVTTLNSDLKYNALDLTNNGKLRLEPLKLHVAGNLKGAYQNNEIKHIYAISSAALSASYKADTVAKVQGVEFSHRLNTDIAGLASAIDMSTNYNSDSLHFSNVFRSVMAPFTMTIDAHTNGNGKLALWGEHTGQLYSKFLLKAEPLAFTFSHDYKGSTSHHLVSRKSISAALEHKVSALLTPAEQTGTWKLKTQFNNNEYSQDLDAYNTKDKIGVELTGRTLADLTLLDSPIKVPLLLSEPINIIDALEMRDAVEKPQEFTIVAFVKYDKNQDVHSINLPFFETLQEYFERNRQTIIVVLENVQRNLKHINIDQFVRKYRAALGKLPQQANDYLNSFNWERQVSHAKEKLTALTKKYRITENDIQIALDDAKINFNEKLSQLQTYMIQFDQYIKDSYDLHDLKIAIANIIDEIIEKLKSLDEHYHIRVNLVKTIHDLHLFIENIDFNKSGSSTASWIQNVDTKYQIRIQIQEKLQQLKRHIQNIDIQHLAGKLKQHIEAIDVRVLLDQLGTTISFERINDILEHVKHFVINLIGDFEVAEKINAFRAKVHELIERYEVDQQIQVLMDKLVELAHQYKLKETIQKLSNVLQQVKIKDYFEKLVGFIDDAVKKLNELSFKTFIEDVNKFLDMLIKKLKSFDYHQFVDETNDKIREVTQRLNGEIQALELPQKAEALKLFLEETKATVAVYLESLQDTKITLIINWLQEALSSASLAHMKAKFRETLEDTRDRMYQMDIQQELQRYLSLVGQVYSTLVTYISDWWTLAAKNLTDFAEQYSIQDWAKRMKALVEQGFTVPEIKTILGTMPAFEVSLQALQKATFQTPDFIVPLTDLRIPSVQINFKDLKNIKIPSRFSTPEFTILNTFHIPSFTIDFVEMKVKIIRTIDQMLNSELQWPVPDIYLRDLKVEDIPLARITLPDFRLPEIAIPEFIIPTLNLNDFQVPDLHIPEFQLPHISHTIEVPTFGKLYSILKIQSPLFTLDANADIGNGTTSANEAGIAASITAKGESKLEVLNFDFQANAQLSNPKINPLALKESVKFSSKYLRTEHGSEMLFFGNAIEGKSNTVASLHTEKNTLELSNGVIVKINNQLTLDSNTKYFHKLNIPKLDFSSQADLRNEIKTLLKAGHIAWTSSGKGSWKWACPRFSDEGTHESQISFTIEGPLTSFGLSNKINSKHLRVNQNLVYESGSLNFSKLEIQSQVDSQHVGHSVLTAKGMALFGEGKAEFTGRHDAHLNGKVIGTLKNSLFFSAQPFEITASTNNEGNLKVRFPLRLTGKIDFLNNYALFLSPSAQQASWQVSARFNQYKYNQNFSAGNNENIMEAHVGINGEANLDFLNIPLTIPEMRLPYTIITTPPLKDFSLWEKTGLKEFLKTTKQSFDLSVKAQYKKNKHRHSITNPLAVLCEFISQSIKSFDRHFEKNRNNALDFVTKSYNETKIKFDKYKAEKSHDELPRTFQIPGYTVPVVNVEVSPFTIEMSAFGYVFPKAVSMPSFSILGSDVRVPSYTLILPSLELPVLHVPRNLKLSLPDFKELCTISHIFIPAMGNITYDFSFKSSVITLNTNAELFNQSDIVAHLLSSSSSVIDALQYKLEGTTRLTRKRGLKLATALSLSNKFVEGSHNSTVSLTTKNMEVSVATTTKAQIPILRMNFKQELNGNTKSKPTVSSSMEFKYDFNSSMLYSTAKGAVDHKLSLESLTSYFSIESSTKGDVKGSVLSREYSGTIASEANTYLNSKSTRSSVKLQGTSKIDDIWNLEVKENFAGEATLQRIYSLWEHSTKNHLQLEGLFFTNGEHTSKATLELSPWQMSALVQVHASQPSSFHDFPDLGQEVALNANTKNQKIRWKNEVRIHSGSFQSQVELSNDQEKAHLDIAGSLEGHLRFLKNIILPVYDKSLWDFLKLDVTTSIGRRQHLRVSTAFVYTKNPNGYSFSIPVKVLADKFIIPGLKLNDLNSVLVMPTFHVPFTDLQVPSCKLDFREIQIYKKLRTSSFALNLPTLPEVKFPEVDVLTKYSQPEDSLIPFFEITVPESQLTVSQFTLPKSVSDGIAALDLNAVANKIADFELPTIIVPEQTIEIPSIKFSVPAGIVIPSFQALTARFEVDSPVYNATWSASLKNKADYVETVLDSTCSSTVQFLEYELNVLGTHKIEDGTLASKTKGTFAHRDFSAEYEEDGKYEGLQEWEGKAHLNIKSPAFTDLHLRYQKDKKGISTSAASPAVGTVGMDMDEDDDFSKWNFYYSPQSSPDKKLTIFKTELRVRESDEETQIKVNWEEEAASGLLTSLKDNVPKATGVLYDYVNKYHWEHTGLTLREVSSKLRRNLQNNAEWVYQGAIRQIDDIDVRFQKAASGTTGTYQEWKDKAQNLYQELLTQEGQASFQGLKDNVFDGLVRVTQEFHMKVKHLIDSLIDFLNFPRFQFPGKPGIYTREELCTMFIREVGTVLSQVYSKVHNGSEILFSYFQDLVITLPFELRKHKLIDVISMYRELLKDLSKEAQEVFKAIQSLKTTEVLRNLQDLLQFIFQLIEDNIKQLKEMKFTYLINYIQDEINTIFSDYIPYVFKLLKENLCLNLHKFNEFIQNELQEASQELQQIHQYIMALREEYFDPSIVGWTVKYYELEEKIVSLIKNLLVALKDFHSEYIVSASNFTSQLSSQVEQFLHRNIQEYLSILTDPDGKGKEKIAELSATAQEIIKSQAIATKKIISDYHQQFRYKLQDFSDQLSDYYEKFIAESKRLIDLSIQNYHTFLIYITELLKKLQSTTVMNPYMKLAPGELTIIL

Target: MDA ApoB100 (malondialdehyde oxidized apo B 100 protein portion of LDL) (UniProt P04114)
Experiment: worded statement in the conclusions of Example 1; 2D03 in serum was quantified by an antigen-binding ELISA with MDA ApoB100 as capture reagent

binding: binds
B1: 2D03 (antibody, V domains shown)
VH: EVQLLESGGGLVQPGGSLRLSCAASGFTFSNAWMSWVRQAPGKGLEWVSSISVGGHRTYYADSVKGRSTISRDNSKNTLYLQMNSLRAEDTAVYYCARIRVGPSGGAFDYWGQGTLVTVSS
VL: QSVLTQPPSASGTPGQRVTISCSGSNTNIGKNYVSWYQQLPGTAPKLLIYANSNRPSGVPDRFSGSKSGTSASLAISGLRSEDEADYYCASWDASLNGWVFGGGTKLTVLG
